PubChem BioAssay AID652243, Drosophila RNAi Screening Center, 2013

- Purpose: 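Fly regulators of androgen-dependent reporter output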 (primary screen)
- System: Drosophila S2R+ cells
- Knock-down reagent: long dsRNA against Drosophila genes
- Timing: 72 h (48 h, then 24 h hormone)
- Challenge: synthetic androgen R1881 at 10 nM for 24 h
- Measurement: 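Firefly light from an androgen-responsive reporter and Renilla control light per well, raw and unnormalised, for each of two replicates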
- Direction: firefly reporter light: higher = more light from androgen-responsive reporter; Renilla control light: higher = more constitutive control signal (cell number, transfection)
- Call rule: 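Across duplicate plates, a knock-down whose log firefly/Renilla ratio shifted a set fold down or up from the GFP/LacZ control mean was a hit; the downward cut appears as both 1.5 and 3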
- Meaning of the calls: active = hit: reporter lowered or raised; inactive = no hit
The screen tested about 24,000 reagents; below is a random part of those that have a named target and a result. Of all reagents, 246 (1%) got an active call. 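Plates not normalised; calls are printed but the firefly/Renilla ratio behind them is not deposited; fold cut for lowering reported inconsistently.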 The raw values are shown without normalisation. Unmarked entries are inactive. The numbers tell different reagents against one gene apart. Not given: the amount of reagent.

For dgo (GeneID 36139) #1, what was measured?
firefly reporter light, replicate 1: 1.11e6; firefly reporter light, replicate 2: 1.29e6; Renilla control light, replicate 1: 1.23e6; Renilla control light, replicate 2: 1.25e6

For dgo (GeneID 36139) #2, how do the results read?
firefly reporter light, replicate 1: 2.57e5; firefly reporter light, replicate 2: 1.84e5; Renilla control light, replicate 1: 6.94e5; Renilla control light, replicate 2: 4.30e5

For CG17544 (GeneID 35213) #1, what does the deposit list?
firefly reporter light, replicate 1: 9.70e5; firefly reporter light, replicate 2: 1.02e6; Renilla control light, replicate 1: 1.40e6; Renilla control light, replicate 2: 1.43e6

How did the screen score CG17544 (GeneID 35213) #2?
firefly reporter light, replicate 1: 7.92e5; firefly reporter light, replicate 2: 6.58e5; Renilla control light, replicate 1: 1.56e6; Renilla control light, replicate 2: 1.71e6

How did the screen score hng2 (GeneID 41056)?
firefly reporter light, replicate 1: 82315; firefly reporter light, replicate 2: 1.02e5; Renilla control light, replicate 1: 2.04e6; Renilla control light, replicate 2: 2.16e6

For azot (GeneID 35751) #1, what was measured?
firefly reporter light, replicate 1: 2.42e5; firefly reporter light, replicate 2: 2.53e5; Renilla control light, replicate 1: 1.30e6; Renilla control light, replicate 2: 1.48e6

What did the screen give for azot (GeneID 35751) #2?
firefly reporter light, replicate 1: 1.33e6; firefly reporter light, replicate 2: 1.62e6; Renilla control light, replicate 1: 8.65e5; Renilla control light, replicate 2: 9.86e5

Which result is listed for stv (GeneID 39518) #1?
firefly reporter light, replicate 1: 1.08e5; firefly reporter light, replicate 2: 86166; Renilla control light, replicate 1: 2.30e6; Renilla control light, replicate 2: 1.62e6

With stv (GeneID 39518) #2, what does the deposit list?
firefly reporter light, replicate 1: 5.27e5; firefly reporter light, replicate 2: 7.29e5; Renilla control light, replicate 1: 8.64e5; Renilla control light, replicate 2: 8.43e5

For CG40968 (retired record) (GeneID 5740518), what was measured?
firefly reporter light, replicate 1: 1.07e6; firefly reporter light, replicate 2: 7.50e5; Renilla control light, replicate 1: 2.70e6; Renilla control light, replicate 2: 2.09e6

With pst (GeneID 38818), how do the results read?
firefly reporter light, replicate 1: 8.43e5; firefly reporter light, replicate 2: 6.53e5; Renilla control light, replicate 1: 1.58e6; Renilla control light, replicate 2: 1.45e6

With CG34138 (GeneID 4379856), how do the results read?
firefly reporter light, replicate 1: 9.24e5; firefly reporter light, replicate 2: 8.59e5; Renilla control light, replicate 1: 2.19e6; Renilla control light, replicate 2: 2.38e6

Ordered by “Renilla control light, replicate 2” (low to high): 2 of the entries above.
azot (GeneID 35751) #2: firefly reporter light, replicate 1 = 1.33e6; firefly reporter light, replicate 2 = 1.62e6; Renilla control light, replicate 1 = 8.65e5; Renilla control light, replicate 2 = 9.86e5
stv (GeneID 39518) #1: firefly reporter light, replicate 1 = 1.08e5; firefly reporter light, replicate 2 = 86166; Renilla control light, replicate 1 = 2.30e6; Renilla control light, replicate 2 = 1.62e6

Continued:
What did the screen give for Plekhm1 (GeneID 37520)?
firefly reporter light, replicate 1: 1.60e5; firefly reporter light, replicate 2: 1.95e5; Renilla control light, replicate 1: 1.32e6; Renilla control light, replicate 2: 1.08e6

Which result is listed for stg (GeneID 43466) #1?
firefly reporter light, replicate 1: 11103; firefly reporter light, replicate 2: 6727; Renilla control light, replicate 1: 76732; Renilla control light, replicate 2: 65666

How did the screen score stg (GeneID 43466) #2?
firefly reporter light, replicate 1: 3.24e5; firefly reporter light, replicate 2: 3.49e5; Renilla control light, replicate 1: 4.97e5; Renilla control light, replicate 2: 5.55e5

For stg (GeneID 43466) #3, how do the results read?
firefly reporter light, replicate 1: 41878 (active); firefly reporter light, replicate 2: 38852; Renilla control light, replicate 1: 1.17e5; Renilla control light, replicate 2: 1.52e5

With CG14395 (GeneID 41560), how do the results read?
firefly reporter light, replicate 1: 1.10e5; firefly reporter light, replicate 2: 48719; Renilla control light, replicate 1: 1.72e6; Renilla control light, replicate 2: 1.31e6

What is on record for lncRNA:CR34044 (GeneID 12797898)?
firefly reporter light, replicate 1: 1.14e6; firefly reporter light, replicate 2: 8.42e5; Renilla control light, replicate 1: 2.11e6; Renilla control light, replicate 2: 2.17e6

For CG15721 (GeneID 32247), what was measured?
firefly reporter light, replicate 1: 4.57e5; firefly reporter light, replicate 2: 4.36e5; Renilla control light, replicate 1: 3.96e6; Renilla control light, replicate 2: 3.45e6

For lili (GeneID 42956) #1, what does the deposit list?
firefly reporter light, replicate 1: 76362; firefly reporter light, replicate 2: 61116; Renilla control light, replicate 1: 6.53e5; Renilla control light, replicate 2: 5.75e5

What did the screen give for lili (GeneID 42956) #2?
firefly reporter light, replicate 1: 3.74e5; firefly reporter light, replicate 2: 4.60e5; Renilla control light, replicate 1: 8.43e5; Renilla control light, replicate 2: 8.43e5
